Assay results reported in article PMC12420274.
Results are given in words; binding and its absence hold for the method and conditions named. In cells and extracts the contact can be indirect. Binding can be weak; no strength is given.

Amino acid sequences for entries named in this document (tags omitted). A change or cut given only in a name is not applied to a line headed by its entry. Residues count along the entry.
UniProt P24071, residues 22-287: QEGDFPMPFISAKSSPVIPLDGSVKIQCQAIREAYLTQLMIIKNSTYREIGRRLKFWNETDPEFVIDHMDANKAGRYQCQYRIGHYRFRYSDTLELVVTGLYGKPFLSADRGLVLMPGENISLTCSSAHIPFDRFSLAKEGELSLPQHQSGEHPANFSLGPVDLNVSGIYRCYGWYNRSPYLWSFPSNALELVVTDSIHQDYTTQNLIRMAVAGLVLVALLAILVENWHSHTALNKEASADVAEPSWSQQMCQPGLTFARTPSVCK
UniProt O60239: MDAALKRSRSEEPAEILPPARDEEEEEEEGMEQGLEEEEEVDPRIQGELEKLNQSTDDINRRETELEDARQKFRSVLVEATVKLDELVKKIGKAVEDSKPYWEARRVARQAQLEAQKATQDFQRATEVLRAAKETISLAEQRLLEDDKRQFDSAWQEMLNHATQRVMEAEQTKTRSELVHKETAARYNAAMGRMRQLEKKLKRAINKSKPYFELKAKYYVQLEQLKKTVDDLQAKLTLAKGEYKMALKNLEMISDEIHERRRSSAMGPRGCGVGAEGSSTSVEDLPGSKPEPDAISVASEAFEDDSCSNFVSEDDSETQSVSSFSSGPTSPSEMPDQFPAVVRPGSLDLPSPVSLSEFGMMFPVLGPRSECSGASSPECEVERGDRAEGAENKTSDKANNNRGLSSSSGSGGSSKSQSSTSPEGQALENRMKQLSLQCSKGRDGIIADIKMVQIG

Molecular target: FcαRI Ser^248, endogenous in human myeloid cells (human (endogenous in U937, THP-1, HL-60 and primary leukocytes)) (UniProt P24071)
Assay: co-IP + pull-down; lysates of U937 cells stably expressing His6-SabΔ31; FcαRI immunoprecipitated or His6-Sab pulled down on a nickel Sepharose column; immunoblot for Sab and FcαRI

His6-SabΔ31, dominant-negative Sab lacking 31 amino acid residues required for Btk binding (from UniProt O60239)
binding: binds
